For four substances, step yield and conjugation yield results are on record in patent publication US8236756B2 (Consejo Superior de Investigaciones Clentificas (CSIC), priority 2003, dated 2012).

*: point of attachment. Cbz = O=C(OCc1ccccc1)*; OtBu = CC(C)(C)O*

A short description of this data set: general procedure: solution-phase peptide synthesis; HOBt/DIC; BOP/TEA.

On to Cbz-VPVP-OH, for which the step yield (late stage modification step) is reported as 84% yield.

With Cbz-VPVP-OtBu, the step yield (coupling step) turned out to be 68% yield.

As for Z-Val-Pro-Val-Pro-Ara-C, the conjugation yield (conjugation step) was 22% yield.

With H-Val-Pro-Val-Pro-Ara-C, the step yield (late stage modification step) was 90% yield.
